The list shows a part of the results. Measured potencies and affinities stand elsewhere.
What follows are compounds tested on Pseudomonas aeruginosa. Settings: Concentration 20 uM; ASSAY_TEST Inhibition of Bacterial Growth; detection method Absorption (OD600); MEDIA CAMHB; plate type 384well; NBS; CORNING #3640; time 18 hr.
In the case of CC(=O)[C@H]1CC[C@H]2[C@@H]3CCC4=CC(=O)CC[C@]4(C)[C@H]3CC[C@]12C [PROGESTERONE], the Inhibition is reported as 17.62%.
CN1[C@@H]2CC[C@H]1C[C@@H](OC(=O)c1c[nH]c3ccccc13)C2.Cl showed an Inhibition of 23.54%.
For CNC(=O)Oc1ccc2c(c1)[C@]1(C)CCN(C)C1N2C.CNC(=O)Oc1ccc2c(c1)[C@]1(C)CCN(C)C1N2C.O=S(=O)(O)O (stereo partly specified), the Inhibition was 12.54%.
With Cl.N=C(N)NC(=O)c1nc(Cl)c(N)nc1N.O.O [AMILORIDE HYDROCHLORIDE] the Inhibition was 16.08%.
CC(=O)OC1C([N+]2(C)CCCCC2)C[C@H]2C3CC[C@H]4C[C@H](OC(C)=O)C([N+]5(C)CCCCC5)CC4(C)[C@H]3CCC12C.[Br-].[Br-] (stereo partly specified) showed an Inhibition of 18.65%.
In the case of COc1cc(N)c(Cl)cc1C(=O)NC1CN2CCC1CC2.Cl.O (stereo unspecified) [ZACOPRIDE HYDROCHLORIDE], the Inhibition is reported as 11.2%.
CN(C)CCOc1ccc(/C(=C(/CCCl)c2ccccc2)c2ccccc2)cc1.O=C(O)CC(O)(CC(=O)O)C(=O)O [TOREMIFENE CITRATE] showed an Inhibition of 2.98%.
COc1cc([C@@H]2c3cc4c(cc3[C@H](O)[C@H]3COC(=O)[C@H]23)OCO4)cc(OC)c1OC [PODOFILOX] was tested, and the Inhibition was 14.46%.
C[N+]1(CCC(C(N)=O)(c2ccccc2)c2ccccc2)CCCCC1.[Br-] [FENPIVERINIUM BROMIDE] gave an Inhibition of 25.98%.
In the case of COc1ccc2[nH]cc(CCN)c2c1 [5-METHOXYTRYPTAMINE], the Inhibition is reported as -13.25%.
Oc1ncnc2[nH]ncc12 [ALLOPURINOL] showed an Inhibition of 24.59%.
COc1ccc(CCN)cc1OC was tested, and the Inhibition was 4.73%.
With CC[C@@H](C(N)=O)N1CCCC1=O the Inhibition was 44.54%.
O=C(O)CCCc1ccc(N(CCCl)CCCl)cc1 [CHLORAMBUCIL] was tested, and the Inhibition was 5.1%.
Compound CC(C(=O)O)c1ccc(-c2ccccc2)c(F)c1 (stereo unspecified) [FLURBIPROFEN] has an Inhibition of 44.27%.
Cl.O.Oc1ccc2c3c1O[C@H]1c4[nH]c5ccccc5c4C[C@@]4(O)C(C2)N(CC2CC2)CC[C@]314 gave an Inhibition of 12.62%.
CCOC(=O)C1=C(COCCN)NC(C)=C(C(=O)OC)C1c1ccccc1Cl (stereo unspecified) [AMLODIPINE] gave an Inhibition of -7.64%.
Cl.O[C@@H]1CCCC[C@H]1N1CCC(c2ccccc2)CC1 gave an Inhibition of 10.24%.
With Cl.Oc1ccc2c3c1OC1C(O)CC[C@@]4(O)[C@@H](C2)N(CC2CCC2)CC[C@]314 (stereo partly specified) the Inhibition was 17.84%.
Cl.Cl.OCCN1CCN(CCCN2c3ccccc3Sc3ccc(C(F)(F)F)cc32)CC1 [FLUPHENAZINE HYDROCHLORIDE] gave an Inhibition of 12.24%.
Cc1ccc(-c2nc3ccc(C)cn3c2CC(=O)N(C)C)cc1.Cc1ccc(-c2nc3ccc(C)cn3c2CC(=O)N(C)C)cc1.O=C(O)C(O)C(O)C(=O)O [ZOLPIDEM TARTRATE] gave an Inhibition of 0.42%.

— ChEMBL document CHEMBL4513141, “CO-ADD screening of NIH (USA) - Clinical Collection” (2021)
